Results are given in words; binding and its absence hold for the method and conditions named. In cells and extracts the contact can be indirect. These calls come from enrichment with a bait or labelling near it, and not all partners need be listed. No binding means not detected with the bait. Tags and fused reporters may be left off the sequences shown.

Consider one molecule from PMC3296614.

This test deals with HA-tagged PfCK2β2 (P. falciparum). Put plainly: affinity purification with mass spectrometry; extracts (M-PER, protease inhibitors, benzonase) of parasites expressing HA-tagged PfCK2β1 or PfCK2β2 incubated overnight with anti-HA crosslinked onto sepharose beads, three washes in TBS, elution in boiled Laemmli buffer, SDS-PAGE, in-gel trypsin digestion, LC-MS/MS; wild-type 3D7 extract as negative control.

B1: Histone H2B variant (protein, UniProt Q8IBV7 1-123)
chain: MSGKGPAQKSQAAKKTAGKTLGPRHKRKRRTESFSLYIFKVLKQVHPETGVTKKSMNIMNSFINDIFDRLVTEATRLIRYNKKRTLSSREIQTAVRLLLPGELSKHAVSEGTKAVTKYTTSAA
For B1, the binding entry is reported as “no binding”.
